The values that follow come from the supplement of paper PMC12819154, “High-throughput peptide-centric local stability assay extends protein–ligand identification to membrane proteins, tissues and bacteria” (Nature Structural & Molecular Biology, 2025).

Protein sequences, listed by entry. Tags and fused reporters are not part of them. Lines headed by an entry give the natural chain unless they say otherwise; changes in a name come on top.
UniProt P77473: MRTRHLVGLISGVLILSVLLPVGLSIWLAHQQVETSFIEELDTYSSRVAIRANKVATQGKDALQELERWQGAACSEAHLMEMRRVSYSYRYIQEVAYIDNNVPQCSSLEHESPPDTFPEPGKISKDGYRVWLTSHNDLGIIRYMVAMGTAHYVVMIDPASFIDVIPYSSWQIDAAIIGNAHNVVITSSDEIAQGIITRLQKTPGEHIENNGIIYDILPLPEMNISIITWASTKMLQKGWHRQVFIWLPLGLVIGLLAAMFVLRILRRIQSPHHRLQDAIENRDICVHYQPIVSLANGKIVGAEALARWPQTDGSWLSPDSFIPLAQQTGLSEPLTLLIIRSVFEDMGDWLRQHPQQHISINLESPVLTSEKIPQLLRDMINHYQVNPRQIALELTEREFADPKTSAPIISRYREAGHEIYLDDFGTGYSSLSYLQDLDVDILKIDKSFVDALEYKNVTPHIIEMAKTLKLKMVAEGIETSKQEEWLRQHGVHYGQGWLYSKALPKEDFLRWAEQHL
UniProt P76909: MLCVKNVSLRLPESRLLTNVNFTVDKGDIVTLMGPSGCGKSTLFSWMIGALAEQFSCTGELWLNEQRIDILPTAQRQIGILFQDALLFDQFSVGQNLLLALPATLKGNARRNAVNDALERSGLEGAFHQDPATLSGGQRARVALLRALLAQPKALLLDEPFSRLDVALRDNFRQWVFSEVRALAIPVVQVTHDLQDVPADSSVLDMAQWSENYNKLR
UniProt P76542: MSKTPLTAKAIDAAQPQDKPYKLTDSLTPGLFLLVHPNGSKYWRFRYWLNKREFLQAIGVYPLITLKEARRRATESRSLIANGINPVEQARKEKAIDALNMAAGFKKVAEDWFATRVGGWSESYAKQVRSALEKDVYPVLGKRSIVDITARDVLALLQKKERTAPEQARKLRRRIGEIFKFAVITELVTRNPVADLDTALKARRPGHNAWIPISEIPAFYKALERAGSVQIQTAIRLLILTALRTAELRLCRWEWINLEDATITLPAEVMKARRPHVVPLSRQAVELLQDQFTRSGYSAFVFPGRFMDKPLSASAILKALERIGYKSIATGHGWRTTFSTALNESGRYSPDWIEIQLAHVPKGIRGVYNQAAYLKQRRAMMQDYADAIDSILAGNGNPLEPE
UniProt P77596: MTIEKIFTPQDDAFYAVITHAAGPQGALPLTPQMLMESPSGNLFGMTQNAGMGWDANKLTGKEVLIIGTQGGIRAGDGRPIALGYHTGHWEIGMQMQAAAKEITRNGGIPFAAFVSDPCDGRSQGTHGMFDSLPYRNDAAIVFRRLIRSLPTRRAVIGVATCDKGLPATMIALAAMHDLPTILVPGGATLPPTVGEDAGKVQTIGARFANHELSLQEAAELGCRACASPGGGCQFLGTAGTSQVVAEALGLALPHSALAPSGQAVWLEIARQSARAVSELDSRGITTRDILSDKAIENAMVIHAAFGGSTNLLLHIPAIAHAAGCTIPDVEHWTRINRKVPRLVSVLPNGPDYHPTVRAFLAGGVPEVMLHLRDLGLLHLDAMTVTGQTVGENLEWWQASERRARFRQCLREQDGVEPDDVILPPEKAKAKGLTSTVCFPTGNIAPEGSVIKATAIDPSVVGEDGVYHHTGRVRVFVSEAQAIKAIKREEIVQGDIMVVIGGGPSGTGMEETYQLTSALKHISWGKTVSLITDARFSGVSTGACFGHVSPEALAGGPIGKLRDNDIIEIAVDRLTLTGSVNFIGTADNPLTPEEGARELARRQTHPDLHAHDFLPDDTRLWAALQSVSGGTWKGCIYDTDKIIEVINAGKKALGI
UniProt P75957: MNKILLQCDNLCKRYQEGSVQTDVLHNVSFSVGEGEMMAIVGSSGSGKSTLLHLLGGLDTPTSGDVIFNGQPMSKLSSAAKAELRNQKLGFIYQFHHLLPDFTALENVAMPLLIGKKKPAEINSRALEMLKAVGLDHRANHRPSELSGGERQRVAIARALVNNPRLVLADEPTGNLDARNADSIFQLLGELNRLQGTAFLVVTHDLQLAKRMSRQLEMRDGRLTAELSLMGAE
UniProt P76541: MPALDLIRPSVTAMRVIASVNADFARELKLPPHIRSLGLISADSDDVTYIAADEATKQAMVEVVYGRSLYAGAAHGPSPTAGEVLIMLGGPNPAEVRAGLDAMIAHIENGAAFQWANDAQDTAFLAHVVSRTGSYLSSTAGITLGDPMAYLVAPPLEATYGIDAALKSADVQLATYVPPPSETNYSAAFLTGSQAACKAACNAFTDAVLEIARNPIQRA
UniProt P76082: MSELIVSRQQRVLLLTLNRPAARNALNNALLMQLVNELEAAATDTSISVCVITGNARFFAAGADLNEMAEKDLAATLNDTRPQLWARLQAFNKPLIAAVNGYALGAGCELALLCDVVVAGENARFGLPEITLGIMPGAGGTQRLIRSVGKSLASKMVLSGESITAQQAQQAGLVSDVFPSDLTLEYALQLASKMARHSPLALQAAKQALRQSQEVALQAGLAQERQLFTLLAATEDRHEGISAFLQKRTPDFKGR
UniProt P77399: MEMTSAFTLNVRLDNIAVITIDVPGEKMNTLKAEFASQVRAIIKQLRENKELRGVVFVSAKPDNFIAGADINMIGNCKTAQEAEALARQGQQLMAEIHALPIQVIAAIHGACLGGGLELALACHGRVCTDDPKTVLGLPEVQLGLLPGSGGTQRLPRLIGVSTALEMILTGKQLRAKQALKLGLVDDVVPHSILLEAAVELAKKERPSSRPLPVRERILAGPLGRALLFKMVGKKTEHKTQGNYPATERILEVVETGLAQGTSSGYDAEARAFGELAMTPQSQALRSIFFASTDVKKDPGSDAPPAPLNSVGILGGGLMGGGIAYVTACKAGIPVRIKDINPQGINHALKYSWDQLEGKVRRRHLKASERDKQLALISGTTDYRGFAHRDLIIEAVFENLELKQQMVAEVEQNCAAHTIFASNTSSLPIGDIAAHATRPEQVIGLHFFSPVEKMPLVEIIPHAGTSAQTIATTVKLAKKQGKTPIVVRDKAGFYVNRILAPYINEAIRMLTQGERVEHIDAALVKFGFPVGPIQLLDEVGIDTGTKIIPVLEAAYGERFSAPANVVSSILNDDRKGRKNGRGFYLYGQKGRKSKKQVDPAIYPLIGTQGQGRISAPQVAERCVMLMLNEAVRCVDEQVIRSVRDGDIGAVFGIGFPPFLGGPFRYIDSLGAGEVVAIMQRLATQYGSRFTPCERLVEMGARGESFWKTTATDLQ
UniProt P77526: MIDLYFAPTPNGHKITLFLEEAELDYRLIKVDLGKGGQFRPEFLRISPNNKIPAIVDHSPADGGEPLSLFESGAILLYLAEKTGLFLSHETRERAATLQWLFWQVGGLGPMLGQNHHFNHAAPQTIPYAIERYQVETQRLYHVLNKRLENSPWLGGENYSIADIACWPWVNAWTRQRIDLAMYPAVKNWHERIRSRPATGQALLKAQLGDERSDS
UniProt P76004: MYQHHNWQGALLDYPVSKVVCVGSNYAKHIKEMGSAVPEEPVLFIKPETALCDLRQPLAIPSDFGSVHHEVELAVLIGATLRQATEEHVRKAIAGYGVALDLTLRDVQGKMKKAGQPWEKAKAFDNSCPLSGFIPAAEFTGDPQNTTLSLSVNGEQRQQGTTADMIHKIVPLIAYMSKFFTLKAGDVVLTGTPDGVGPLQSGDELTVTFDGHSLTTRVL
UniProt P77359: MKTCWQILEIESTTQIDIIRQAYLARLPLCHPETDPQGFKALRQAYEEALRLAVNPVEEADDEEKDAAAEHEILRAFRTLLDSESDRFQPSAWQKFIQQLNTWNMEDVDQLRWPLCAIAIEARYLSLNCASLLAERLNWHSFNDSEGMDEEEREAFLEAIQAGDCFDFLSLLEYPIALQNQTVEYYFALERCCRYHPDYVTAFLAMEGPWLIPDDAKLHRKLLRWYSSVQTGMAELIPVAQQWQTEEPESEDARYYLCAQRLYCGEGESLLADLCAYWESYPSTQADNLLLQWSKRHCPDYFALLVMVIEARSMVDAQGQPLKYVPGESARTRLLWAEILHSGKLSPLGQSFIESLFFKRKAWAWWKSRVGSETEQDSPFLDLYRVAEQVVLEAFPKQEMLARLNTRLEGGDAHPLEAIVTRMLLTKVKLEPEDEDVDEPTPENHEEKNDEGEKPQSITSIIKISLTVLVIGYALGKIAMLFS
UniProt P77187: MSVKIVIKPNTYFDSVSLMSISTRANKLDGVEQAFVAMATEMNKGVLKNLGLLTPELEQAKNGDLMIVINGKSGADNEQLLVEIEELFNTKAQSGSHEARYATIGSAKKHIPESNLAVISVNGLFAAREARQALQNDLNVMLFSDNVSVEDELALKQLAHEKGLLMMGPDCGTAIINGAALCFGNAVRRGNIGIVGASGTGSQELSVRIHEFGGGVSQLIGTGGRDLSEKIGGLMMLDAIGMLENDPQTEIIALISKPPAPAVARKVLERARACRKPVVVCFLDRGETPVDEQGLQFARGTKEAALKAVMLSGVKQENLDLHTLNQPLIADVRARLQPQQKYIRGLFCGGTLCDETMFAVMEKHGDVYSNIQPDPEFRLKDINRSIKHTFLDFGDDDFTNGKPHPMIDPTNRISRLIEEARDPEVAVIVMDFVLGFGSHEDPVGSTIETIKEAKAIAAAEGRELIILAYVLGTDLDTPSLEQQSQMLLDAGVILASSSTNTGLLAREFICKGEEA
UniProt P77611: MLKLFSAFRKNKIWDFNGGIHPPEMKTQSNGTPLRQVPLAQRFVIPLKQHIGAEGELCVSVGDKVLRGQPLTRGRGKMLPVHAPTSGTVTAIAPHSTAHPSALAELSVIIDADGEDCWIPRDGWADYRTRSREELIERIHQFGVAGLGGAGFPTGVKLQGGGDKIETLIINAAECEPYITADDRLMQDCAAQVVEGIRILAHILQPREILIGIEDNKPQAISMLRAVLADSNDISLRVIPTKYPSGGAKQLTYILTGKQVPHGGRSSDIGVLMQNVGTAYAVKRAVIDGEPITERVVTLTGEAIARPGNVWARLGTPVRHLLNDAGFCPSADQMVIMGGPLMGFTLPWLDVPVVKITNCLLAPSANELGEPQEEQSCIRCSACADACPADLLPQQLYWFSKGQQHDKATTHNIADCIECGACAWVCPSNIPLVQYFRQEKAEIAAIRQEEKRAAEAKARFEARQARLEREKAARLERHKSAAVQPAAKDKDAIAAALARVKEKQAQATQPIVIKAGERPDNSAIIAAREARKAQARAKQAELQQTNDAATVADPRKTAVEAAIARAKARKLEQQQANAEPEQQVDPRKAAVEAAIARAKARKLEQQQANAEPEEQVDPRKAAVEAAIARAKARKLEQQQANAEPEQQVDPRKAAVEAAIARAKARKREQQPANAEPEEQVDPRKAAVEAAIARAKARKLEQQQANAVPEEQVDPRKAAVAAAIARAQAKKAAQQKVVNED
UniProt P75931: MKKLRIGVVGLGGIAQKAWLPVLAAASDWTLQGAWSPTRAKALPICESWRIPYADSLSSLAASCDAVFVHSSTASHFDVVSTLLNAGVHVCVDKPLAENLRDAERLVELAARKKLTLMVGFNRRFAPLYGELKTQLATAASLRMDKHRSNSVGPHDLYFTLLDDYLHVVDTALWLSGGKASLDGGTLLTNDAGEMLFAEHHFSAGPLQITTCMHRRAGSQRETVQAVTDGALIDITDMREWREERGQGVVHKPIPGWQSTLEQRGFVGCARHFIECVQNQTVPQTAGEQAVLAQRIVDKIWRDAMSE
UniProt P76172: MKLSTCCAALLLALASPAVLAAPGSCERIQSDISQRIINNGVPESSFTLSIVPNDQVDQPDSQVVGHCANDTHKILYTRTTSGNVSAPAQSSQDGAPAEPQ
UniProt P77293: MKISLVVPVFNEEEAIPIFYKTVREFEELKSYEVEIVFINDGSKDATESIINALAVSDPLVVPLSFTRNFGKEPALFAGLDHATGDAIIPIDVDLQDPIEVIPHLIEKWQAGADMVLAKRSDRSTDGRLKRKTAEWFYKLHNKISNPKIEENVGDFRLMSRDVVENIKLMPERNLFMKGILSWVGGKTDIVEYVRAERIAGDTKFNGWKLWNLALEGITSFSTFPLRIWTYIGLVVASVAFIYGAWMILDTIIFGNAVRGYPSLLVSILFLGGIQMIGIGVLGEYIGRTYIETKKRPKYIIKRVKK
UniProt P76586: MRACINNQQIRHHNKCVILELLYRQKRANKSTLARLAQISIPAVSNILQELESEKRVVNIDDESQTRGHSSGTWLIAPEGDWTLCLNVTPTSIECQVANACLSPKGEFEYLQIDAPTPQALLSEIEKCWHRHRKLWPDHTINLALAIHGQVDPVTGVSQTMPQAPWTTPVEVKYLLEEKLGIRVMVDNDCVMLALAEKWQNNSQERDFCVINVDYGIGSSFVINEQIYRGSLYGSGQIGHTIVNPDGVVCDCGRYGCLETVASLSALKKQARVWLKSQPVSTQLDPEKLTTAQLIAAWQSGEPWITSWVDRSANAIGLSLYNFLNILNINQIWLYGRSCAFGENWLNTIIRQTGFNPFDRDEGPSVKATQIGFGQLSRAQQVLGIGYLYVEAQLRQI

Some of the results follow. Most entries show no effect beyond the scatter of the controls.

Compound in the test: CC1(C)S[C@@H]2[C@H](NC(=O)[C@H](N)c3ccccc3)C(=O)N2[C@H]1C(=O)O [ampicillin]
The experiment in a line: log2 fold change of tryptic peptide abundance, ligand vs vehicle (limited proteolysis) (log2 ratio); higher = more trypsin-susceptible (destabilized). Particulars: ligand concentration: 10 uM; sample: E. coli crude lysate.
For “UniProt P77454 (peptide sequence: QLGYNVFKG, peptide start residue: 302)”, the log2 fold change is -0.259.
As for “UniProt P77473 (peptide sequence: NVTPHIIEMAK, peptide start residue: 456)”, the figure is 0.469; as for “UniProt P76909 (peptide sequence: SGLEGAFHQDPATLSGGQR, peptide start residue: 121)”, 0.0975; as for “UniProt P76149 (peptide sequence: ARSEEMAQMITR, peptide start residue: 66)”, -0.505.
As for “UniProt P75869 (peptide sequence: VDESLWR, peptide start residue: 84)”, the figure is -0.11.
As for “UniProt P76542 (peptide sequence: AIDALNMAAGFK, peptide start residue: 95)”, the figure is 0.244; as for “UniProt P76558 (peptide sequence: FKEYWTEYFQIMK, peptide start residue: 507)”, 0.27; as for “UniProt P77596 (peptide sequence: FANHELSLQEAAELGCR, peptide start residue: 208)”, -0.121.
For “UniProt P77171 (peptide sequence: HLHTFVAVAQQGTLGR, peptide start residue: 15)”, the log2 fold change was found to be 0.121.
As for “UniProt P76576 (peptide sequence: GEALLSKGDK, peptide start residue: 165)”, the figure is 0.141.
The result for “UniProt P75957 (peptide sequence: ILLQCDNLCKR, peptide start residue: 4)” reads 0.238; that for “UniProt P76116 (peptide sequence: TFDTPTHPNSLALSADGK, peptide start residue: 309)”, -0.884; that for “UniProt P77562 (peptide sequence: LALDGDLIR, peptide start residue: 258)”, 0.351.
The result for “UniProt P77554 (peptide sequence: NLQNLQAVLAR, peptide start residue: 195)” reads -0.489; that for “UniProt P77324 (peptide sequence: NQATTAGNLLQR, peptide start residue: 105)”, 0.154; that for “UniProt P77258 (peptide sequence: IFMAPLTR, peptide start residue: 21)”, -0.284.
As to “UniProt P76520 (peptide sequence: QYYEANLALK, peptide start residue: 186)”, the log2 fold change was -0.118.
Consider “UniProt P77559 (peptide sequence: YFVAVAEELHFGR, peptide start residue: 10)”, for which the log2 fold change is 0.526.
As for “UniProt P76339 (peptide sequence: VECNQQIFADK, peptide start residue: 336)”, the figure is 0.835; as for “UniProt P76541 (peptide sequence: VIASVNADFAR, peptide start residue: 16)”, 0.0205; as for “UniProt P76082 (peptide sequence: VLLLTLNRPAAR, peptide start residue: 12)”, -0.116.
Turning to “UniProt P76097 (peptide sequence: VGTAQELATLRR, peptide start residue: 73)”, the log2 fold change is -0.613.
The result for “UniProt P77399 (peptide sequence: TAQEAEALAR, peptide start residue: 79)” reads -0.297; that for “UniProt P77526 (peptide sequence: SRPATGQALLK, peptide start residue: 195)”, -0.34.
Regarding “UniProt P76002 (peptide sequence: YSPELDSHGQYSLPASGK, peptide start residue: 89)”, the log2 fold change was 0.166.
As for “UniProt P77147 (peptide sequence: LATDPGERPFCSQFAR, peptide start residue: 75)”, the figure is 0.0239; as for “UniProt P76004 (peptide sequence: KAGQPWEK, peptide start residue: 113)”, -0.136.
As for “UniProt P77359 (peptide sequence: SMVDAQGQPLK, peptide start residue: 313)”, the figure is 0.351.
The result for “UniProt P77187 (peptide sequence: HGDVYSNIQPDPEFR, peptide start residue: 364)” reads -0.286.
In the case of “UniProt P77335 (peptide sequence: SSYFQSQVDK, peptide start residue: 163)”, the log2 fold change is -0.147.
On to “UniProt P77611 (peptide sequence: KTAVEAAIAR, peptide start residue: 556)”, for which the log2 fold change was 0.227.
The result for “UniProt P75931 (peptide sequence: FAPLYGELK, peptide start residue: 125)” reads 0.236.
With “UniProt P76172 (peptide sequence: IQSDISQR, peptide start residue: 29)”, the log2 fold change worked out at 0.0108.
As for “UniProt P77293 (peptide sequence: ISNPKIEENVGDFR, peptide start residue: 144)”, the figure is -0.407.
The result for “UniProt P76586 (peptide sequence: YGCLETVASLSALKK, peptide start residue: 255)” reads 0.733; that for “UniProt P75990 (peptide sequence: KDGEIYTADLK, peptide start residue: 210)”, 0.872; that for “UniProt P76555 (peptide sequence: AGDVMFIPK, peptide start residue: 199)”, 0.137.
